# Experimental data: PubChem BioAssay AID743121 (NCATS, 2013)
# Test: 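Partners whose loss is lethal together with topoisomerase I blockade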 (primary screen)
# Cell system: MDA-MB-231 cells, a human breast cancer line
# Reagents: single siRNA against human genes, 20 nM siRNA (0.8 pmol per well)
# Timing: 120 h (drug added 48 h after transfection, read 72 h later)
# Conditions: camptothecin 20 nM (about EC30) for 72 h; vehicle 0.1% DMSO in parallel plates
# Read-out: 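CellTiter-Glo ATP signal, scaled to control siRNA as percent viability; sensitisation given as log2 of untreated divided by camptothecin-treated viability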
# Reading the numbers: log2 vehicle/camptothecin viability: higher = stronger sensitisation to camptothecin; viability with camptothecin: higher = more viable cells
# Active means: 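Active genes have an RSA gene-level p-value below 0.001, computed from the ratios of their separate siRNAs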
# In all, the deposit lists about 26,000 reagents; shown is a random part of them. Over the whole deposit, 167 (0.63%) got an active call. 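Calls are per gene from RSA p-values that are not deposited; an individual active-marked siRNA can sensitise only weakly.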 Reagents against one gene are numbered here. Not all columns of the deposit are shown. Reagent sequences are not shown.
gene knocked down,reagent no.,log2 vehicle/camptothecin viability,viability with camptothecin (% of control),Call
PLK1 (polo like kinase 1),1,-0.247,13.6,inactive
PLK1 (polo like kinase 1),2,-0.0628,5.8,inactive
PLK1 (polo like kinase 1),3,-0.843,22.1,inactive
PLK1 (polo like kinase 1),4,0.367,26.8,inactive
NPC1 (NPC intracellular cholesterol transporter 1),1,-0.154,103,inactive
NPC1 (NPC intracellular cholesterol transporter 1),2,-0.174,50.4,inactive
NPC1 (NPC intracellular cholesterol transporter 1),3,-0.35,82.3,inactive
NPC1 (NPC intracellular cholesterol transporter 1),4,-0.331,103,inactive
CTRL (chymotrypsin like),1,0.112,91.3,inactive
CTRL (chymotrypsin like),2,0.302,22.8,inactive
CTRL (chymotrypsin like),3,-0.354,94.7,inactive
CTRL (chymotrypsin like),4,-0.478,95.8,inactive
FLT1 (fms related receptor tyrosine kinase 1),1,-0.019,88,inactive
FLT1 (fms related receptor tyrosine kinase 1),2,-0.173,51.5,inactive
FLT1 (fms related receptor tyrosine kinase 1),3,-0.5,90.1,inactive
FLT1 (fms related receptor tyrosine kinase 1),4,-0.17,98.1,inactive
MYBL2 (MYB proto-oncogene like 2),1,-0.108,64.3,inactive
MYBL2 (MYB proto-oncogene like 2),2,-0.662,40.1,inactive
MYBL2 (MYB proto-oncogene like 2),3,-0.159,76.6,inactive
MYBL2 (MYB proto-oncogene like 2),4,-0.0906,93.8,inactive
TXNDC17 (thioredoxin domain containing 17),1,0.682,7.23,inactive
TXNDC17 (thioredoxin domain containing 17),2,-0.745,53.8,inactive
TXNDC17 (thioredoxin domain containing 17),3,-0.35,80.5,inactive
TXNDC17 (thioredoxin domain containing 17),4,-0.0646,85,inactive
UBAC2 (UBA domain containing 2),1,0.538,30.5,inactive
UBAC2 (UBA domain containing 2),2,-0.00233,76.3,inactive
UBAC2 (UBA domain containing 2),3,-0.476,91.1,inactive
UBAC2 (UBA domain containing 2),4,0.215,72.7,inactive

Sorted by “viability with camptothecin (% of control)” (ascending): some entries from above.
gene knocked down,reagent no.,log2 vehicle/camptothecin viability,viability with camptothecin (% of control),Call
CTRL (chymotrypsin like),2,0.302,22.8,inactive
FLT1 (fms related receptor tyrosine kinase 1),1,-0.019,88,inactive
CTRL (chymotrypsin like),3,-0.354,94.7,inactive
CTRL (chymotrypsin like),4,-0.478,95.8,inactive
